Measured values as given in paper PMC8948190.
No constants are given. Whether binding was seen depends on the method and setting. In cells and extracts the contact can be indirect. Some entries that bind do so weakly or less than the wild type. For some assays here: Where a sequence is shown, tags or fusion partners need not be part of it. One block for each molecule: values may come before it.

Amino acid sequences for entries named in this document (tags omitted).
UniProt P09874: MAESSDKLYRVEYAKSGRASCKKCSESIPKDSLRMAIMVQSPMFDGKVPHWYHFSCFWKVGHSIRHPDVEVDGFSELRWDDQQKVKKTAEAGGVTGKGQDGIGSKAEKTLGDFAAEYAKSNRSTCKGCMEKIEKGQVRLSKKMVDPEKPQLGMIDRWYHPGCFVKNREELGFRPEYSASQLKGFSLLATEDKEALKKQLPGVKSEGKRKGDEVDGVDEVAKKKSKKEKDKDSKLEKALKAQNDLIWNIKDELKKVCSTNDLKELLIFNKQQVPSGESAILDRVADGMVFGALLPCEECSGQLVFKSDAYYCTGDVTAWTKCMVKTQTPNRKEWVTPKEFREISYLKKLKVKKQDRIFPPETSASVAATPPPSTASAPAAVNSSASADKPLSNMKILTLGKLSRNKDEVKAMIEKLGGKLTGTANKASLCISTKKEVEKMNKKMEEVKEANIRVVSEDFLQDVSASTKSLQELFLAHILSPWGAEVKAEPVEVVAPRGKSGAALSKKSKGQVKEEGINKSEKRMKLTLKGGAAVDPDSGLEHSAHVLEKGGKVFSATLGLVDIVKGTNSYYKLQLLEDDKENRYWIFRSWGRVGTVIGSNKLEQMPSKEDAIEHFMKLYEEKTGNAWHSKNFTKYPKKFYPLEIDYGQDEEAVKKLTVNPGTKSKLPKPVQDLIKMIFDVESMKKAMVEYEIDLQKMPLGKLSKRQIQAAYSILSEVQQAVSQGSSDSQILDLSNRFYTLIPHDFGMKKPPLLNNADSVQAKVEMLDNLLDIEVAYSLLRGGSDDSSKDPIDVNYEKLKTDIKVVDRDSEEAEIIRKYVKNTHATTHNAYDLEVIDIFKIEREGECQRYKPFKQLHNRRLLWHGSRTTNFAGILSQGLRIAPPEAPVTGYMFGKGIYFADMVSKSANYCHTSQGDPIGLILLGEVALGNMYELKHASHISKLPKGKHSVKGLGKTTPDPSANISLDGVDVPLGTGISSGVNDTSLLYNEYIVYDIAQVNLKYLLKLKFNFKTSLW

How the values were obtained:
Myc-HMGB3 = target: T1, Myc-HMGB3 (UniProt O15347); test: co-IP; HEK293T co-transfected with pMyc-C2-HMGB3 and pEGFP-C2-PARP1 for 48 h; IP with anti-Myc or anti-GFP, protein A/G agarose, 4 °C; western blot
T1 sequence: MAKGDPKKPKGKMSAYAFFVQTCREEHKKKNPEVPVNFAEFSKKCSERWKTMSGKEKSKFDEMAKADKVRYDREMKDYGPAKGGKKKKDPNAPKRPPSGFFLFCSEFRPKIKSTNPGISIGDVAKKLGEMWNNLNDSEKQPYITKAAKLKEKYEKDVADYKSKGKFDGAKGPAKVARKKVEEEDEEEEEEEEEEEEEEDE

GST-HMGB3 fusion protein = target: T2, GST-HMGB3 fusion protein (UniProt O15347); test: pull-down; GST-HMGB3 (25 ug) or GST-tag alone on GST-tag Purification Resin incubated with lysate of UWB1.289 cells transfected with PCMV-PARP1 (flag-tag), 2 h at 4 °C; western blot; only the target purified
T2 sequence: T1 sequence

[1] = target: T3, High-mobility group box 3 (HMGB3), endogenous (human (endogenous in A2780, SKOV3, UWB1.289)) (UniProt O15347); test: co-IP; endogenous proteins in A2780, SKOV3 and UWB1.289 lysates; IP with control IgG, anti-HMGB3 or anti-PARP1; western blot; also after 4 mM MMS for 20 min (interaction promoted)
T3 sequence: T1 sequence

[2] = target: poly (ADP-ribose) polymerase 1 (PARP1), endogenous (human (endogenous in A2780, SKOV3, UWB1.289)) (UniProt P09874); test: as above
EGFP-PARP1 = EGFP-PARP1 (UniProt P09874); test: co-IP; HEK293T co-transfected with pMyc-C2-HMGB3 and pEGFP-C2-PARP1 for 48 h; IP with anti-Myc or anti-GFP, protein A/G agarose, 4 °C; western blot

binding (Myc-HMGB3): binds
Molecule: EGFP-PARP1 (from UniProt P09874 1-1014)

binding (GST-HMGB3 fusion protein): binds
Molecule: PARP1 (Flag-tag) from PCMV-PARP1 (from UniProt P09874 1-1014)

binding [1]: binds
Molecule: poly (ADP-ribose) polymerase 1 (PARP1), endogenous (from UniProt P09874 1-1014) (enzyme)

binding [2]: binds
B1: High-mobility group box 3 (HMGB3), endogenous (protein, UniProt O15347 1-200)
chain: T1 sequence

binding (EGFP-PARP1): binds
B2: Myc-HMGB3 (protein, UniProt O15347 1-200)
chain: T1 sequence
